This assay has as its target GFP-tagged gp83 of Kallithea virus (Kallithea virus). In words: affinity purification with mass spectrometry.

Results are given in words; binding and its absence hold for the method and conditions named. Binding seen in cells or lysates may run through a third protein. These calls come from enrichment with a bait or labelling near it, and not all partners need be listed.

B1: spz (spatzle), extracellular Toll ligand (ligand, UniProt P48607 26-326)
chain: KEYERIIKELFTITNDEGVVLFNTSADSAPFMPIPTQHDDPTQKQKQNQNQSPIPETNRHYHQYHSLIQPDQYFKVQRSPNGKLNLVFNDTFVSLQRTDTEVQSEQPIPPRHPSDTFVFPDSPIAKYRPPQSPARPLRNDTKEHNPCAKDESQHLRNFCTNVDDYPDLSGLTHKLKNNFAKFFSNDLQPTDVSSRVGGSDERFLCRSIRKLVYPKKGLRADDTWQLIVNNDEYKQAIQIEECEGADQPCDFAANFPQSYNPICKQHYTQQTLASIKSDGELDVVQNSFKIPSCCKCALKTG
Regarding B1, the binding result is listed as “binds”.

B2: Mlf (protein, UniProt Q9NKV0 1-376)
chain: MSLFGALMGDFDDDLGLMNNHMNHTMNAMNMQMRSMNRLMNSFMPDPFMQVSPFDQGFQQNALMERPQMPAMPAMGLFGMPMMPNFNRLLNADIGGNSGASFCQSTVMTMSSGPDGRPQIYQASTSTKTGPGGVRETRRTVQDSRTGVKKMAIGHHIGERAHIIEKEQDMRSGQLEERQEFINLEEGEAEQFDREFTSRASRGAVQSRHHAGGMQAIMPARPAAHTSTLTIEPVEDDDDDDDDCVIQEQQPVRSSAGRHYSSAPTAPQNSGNIATAAAPTPTSSPTTYDTSNGNNNNYVSSRRSYLRNGHGHSLATPRRPLRTPPSSPLATVSTSPSIHPHPYAANPRRQQRAVKHFHTEDEAASSYKAVKRGKKK
Take B2: the binding entry is recorded as “binds”.

The record behind these values is paper doi:10.1101/358176.
